Experimental data published in the supplement of paper PMC6411743.
± gives the standard deviation of the averaged measurements. The list shows a part of the results, in another mix than the full data.

Protein sequences, listed by entry. Tags and fused reporters are not part of them. Lines headed by an entry give the natural chain unless they say otherwise; changes in a name come on top.
UniProt Q9UJU2, whole entry: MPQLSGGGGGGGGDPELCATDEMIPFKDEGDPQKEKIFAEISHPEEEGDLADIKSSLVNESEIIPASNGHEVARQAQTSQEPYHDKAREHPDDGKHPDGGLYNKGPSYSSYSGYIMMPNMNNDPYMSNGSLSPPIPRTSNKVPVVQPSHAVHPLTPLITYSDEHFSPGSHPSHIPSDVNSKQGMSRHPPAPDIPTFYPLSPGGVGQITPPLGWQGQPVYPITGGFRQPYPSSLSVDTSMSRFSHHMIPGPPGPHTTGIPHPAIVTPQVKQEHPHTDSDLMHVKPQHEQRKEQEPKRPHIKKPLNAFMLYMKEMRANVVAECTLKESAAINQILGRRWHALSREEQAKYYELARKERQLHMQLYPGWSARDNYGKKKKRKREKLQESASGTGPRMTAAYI
UniProt Q9UHC7: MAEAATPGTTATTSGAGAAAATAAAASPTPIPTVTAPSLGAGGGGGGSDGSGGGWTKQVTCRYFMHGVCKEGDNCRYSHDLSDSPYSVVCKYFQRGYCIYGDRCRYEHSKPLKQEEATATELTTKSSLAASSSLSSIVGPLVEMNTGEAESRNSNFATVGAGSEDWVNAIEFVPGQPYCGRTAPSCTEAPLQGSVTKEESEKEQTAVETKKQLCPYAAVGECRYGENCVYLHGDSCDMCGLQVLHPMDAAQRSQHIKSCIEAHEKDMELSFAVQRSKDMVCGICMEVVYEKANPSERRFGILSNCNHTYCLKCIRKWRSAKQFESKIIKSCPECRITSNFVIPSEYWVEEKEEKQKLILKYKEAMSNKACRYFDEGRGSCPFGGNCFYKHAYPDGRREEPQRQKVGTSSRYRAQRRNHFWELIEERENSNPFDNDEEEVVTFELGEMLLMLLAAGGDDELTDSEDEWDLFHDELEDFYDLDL
UniProt Q9UJX3, whole entry: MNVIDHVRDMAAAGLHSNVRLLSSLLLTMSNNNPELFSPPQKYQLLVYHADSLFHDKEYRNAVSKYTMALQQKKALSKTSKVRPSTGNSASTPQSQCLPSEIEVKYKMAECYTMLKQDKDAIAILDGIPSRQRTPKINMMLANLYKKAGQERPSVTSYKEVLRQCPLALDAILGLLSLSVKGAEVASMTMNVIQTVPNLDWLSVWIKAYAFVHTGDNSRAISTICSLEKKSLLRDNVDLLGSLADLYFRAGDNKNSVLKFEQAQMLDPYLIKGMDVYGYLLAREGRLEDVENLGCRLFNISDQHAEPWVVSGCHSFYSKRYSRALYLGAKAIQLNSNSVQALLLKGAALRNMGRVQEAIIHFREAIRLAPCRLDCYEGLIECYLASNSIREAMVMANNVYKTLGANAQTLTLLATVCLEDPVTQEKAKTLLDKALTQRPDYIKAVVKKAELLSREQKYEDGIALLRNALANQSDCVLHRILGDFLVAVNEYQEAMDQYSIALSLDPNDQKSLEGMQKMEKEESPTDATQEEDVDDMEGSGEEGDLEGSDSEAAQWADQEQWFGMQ
UniProt Q9ULE6: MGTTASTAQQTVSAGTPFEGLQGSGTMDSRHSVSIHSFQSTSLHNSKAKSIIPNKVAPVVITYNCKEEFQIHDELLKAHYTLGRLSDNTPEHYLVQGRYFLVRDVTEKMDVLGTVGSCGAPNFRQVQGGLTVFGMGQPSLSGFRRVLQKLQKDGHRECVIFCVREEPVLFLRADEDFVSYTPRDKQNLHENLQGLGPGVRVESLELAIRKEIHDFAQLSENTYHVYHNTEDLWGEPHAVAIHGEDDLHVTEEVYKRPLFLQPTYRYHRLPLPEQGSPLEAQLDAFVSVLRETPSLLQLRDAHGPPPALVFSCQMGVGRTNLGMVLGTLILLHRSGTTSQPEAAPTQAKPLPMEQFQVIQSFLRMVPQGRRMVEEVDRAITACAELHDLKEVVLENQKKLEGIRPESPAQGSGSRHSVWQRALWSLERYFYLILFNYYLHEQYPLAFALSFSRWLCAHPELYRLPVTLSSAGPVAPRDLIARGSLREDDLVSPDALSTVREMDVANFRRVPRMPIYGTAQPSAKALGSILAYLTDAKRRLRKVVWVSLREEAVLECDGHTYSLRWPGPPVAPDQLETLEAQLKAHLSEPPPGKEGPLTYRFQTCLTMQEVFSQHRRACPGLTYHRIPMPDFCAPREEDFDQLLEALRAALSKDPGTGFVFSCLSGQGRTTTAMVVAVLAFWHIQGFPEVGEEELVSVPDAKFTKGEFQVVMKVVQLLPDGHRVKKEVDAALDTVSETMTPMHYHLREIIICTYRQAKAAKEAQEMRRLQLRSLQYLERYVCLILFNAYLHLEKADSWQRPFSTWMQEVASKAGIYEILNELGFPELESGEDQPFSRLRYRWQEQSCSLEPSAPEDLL
UniProt Q9ULK6: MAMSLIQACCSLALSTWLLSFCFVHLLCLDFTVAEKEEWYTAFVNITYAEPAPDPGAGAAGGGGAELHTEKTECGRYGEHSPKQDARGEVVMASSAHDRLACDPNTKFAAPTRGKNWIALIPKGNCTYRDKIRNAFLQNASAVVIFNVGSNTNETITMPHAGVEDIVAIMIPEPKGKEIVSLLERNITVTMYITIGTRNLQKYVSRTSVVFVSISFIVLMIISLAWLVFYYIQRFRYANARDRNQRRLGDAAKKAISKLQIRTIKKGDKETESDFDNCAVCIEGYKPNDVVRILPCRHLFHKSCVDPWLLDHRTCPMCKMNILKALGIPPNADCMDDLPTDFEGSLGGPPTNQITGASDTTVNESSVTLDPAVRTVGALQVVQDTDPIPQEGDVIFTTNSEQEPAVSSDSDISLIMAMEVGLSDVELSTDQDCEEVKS
UniProt Q9UI09, whole entry: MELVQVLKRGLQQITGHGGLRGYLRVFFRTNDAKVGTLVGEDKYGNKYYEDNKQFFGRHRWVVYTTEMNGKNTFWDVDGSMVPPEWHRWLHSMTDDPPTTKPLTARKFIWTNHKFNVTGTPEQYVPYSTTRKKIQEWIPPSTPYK
UniProt Q9UHH9: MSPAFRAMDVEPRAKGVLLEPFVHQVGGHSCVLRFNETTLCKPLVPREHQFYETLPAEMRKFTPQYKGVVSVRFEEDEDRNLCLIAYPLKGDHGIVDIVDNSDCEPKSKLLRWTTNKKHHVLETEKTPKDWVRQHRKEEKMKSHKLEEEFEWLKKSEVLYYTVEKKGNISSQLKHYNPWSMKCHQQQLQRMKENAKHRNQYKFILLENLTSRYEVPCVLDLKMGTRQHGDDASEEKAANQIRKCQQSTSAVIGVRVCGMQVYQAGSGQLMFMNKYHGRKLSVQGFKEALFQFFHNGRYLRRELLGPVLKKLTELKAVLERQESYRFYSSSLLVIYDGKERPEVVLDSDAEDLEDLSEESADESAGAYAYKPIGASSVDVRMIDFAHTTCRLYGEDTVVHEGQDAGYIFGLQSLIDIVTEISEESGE
UniProt Q9UHB7: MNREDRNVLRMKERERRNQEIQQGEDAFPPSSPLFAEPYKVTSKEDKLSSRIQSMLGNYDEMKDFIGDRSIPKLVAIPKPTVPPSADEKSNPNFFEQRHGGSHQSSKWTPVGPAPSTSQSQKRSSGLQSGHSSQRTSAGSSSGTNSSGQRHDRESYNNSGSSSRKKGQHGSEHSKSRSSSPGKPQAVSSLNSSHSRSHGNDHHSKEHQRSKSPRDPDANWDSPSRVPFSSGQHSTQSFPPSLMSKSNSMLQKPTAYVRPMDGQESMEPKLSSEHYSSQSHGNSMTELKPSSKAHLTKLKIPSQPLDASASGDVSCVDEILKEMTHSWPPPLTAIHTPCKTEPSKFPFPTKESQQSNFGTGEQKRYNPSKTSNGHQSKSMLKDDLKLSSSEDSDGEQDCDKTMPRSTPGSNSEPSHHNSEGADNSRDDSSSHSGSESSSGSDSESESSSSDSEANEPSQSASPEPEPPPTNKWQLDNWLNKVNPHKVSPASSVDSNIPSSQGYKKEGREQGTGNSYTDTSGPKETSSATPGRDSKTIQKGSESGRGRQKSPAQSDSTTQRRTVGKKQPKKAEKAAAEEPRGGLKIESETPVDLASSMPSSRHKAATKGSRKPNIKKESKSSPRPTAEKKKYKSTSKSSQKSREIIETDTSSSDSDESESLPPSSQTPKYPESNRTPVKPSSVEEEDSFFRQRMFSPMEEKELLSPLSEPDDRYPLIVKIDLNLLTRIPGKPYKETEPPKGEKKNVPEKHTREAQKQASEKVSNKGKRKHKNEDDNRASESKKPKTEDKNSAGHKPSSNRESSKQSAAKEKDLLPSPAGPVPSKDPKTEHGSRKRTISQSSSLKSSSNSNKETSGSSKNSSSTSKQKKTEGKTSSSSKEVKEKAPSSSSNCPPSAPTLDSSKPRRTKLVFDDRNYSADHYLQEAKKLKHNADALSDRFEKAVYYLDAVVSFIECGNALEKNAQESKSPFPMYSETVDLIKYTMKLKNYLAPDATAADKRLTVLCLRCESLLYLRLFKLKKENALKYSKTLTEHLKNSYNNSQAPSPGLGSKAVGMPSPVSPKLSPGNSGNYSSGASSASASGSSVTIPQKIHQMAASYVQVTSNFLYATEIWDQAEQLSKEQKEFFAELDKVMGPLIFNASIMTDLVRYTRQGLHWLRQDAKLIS
UniProt Q9UJY4: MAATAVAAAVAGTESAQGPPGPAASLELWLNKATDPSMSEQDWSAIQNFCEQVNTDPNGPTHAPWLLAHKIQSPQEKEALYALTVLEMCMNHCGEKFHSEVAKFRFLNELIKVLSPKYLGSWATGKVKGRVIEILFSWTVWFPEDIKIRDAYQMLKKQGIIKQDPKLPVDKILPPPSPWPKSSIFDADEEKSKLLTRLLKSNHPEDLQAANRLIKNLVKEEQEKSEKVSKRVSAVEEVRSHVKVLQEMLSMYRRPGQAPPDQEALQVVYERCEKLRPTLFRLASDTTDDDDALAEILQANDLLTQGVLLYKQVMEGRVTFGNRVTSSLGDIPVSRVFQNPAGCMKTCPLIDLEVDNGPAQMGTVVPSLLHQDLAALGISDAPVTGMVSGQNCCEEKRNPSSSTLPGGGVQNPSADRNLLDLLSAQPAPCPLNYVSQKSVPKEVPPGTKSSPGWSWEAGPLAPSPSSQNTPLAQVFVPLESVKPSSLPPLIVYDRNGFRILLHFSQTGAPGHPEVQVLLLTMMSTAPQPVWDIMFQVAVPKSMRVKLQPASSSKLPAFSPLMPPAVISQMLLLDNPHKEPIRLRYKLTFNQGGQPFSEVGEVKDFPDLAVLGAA
UniProt Q9UBW7: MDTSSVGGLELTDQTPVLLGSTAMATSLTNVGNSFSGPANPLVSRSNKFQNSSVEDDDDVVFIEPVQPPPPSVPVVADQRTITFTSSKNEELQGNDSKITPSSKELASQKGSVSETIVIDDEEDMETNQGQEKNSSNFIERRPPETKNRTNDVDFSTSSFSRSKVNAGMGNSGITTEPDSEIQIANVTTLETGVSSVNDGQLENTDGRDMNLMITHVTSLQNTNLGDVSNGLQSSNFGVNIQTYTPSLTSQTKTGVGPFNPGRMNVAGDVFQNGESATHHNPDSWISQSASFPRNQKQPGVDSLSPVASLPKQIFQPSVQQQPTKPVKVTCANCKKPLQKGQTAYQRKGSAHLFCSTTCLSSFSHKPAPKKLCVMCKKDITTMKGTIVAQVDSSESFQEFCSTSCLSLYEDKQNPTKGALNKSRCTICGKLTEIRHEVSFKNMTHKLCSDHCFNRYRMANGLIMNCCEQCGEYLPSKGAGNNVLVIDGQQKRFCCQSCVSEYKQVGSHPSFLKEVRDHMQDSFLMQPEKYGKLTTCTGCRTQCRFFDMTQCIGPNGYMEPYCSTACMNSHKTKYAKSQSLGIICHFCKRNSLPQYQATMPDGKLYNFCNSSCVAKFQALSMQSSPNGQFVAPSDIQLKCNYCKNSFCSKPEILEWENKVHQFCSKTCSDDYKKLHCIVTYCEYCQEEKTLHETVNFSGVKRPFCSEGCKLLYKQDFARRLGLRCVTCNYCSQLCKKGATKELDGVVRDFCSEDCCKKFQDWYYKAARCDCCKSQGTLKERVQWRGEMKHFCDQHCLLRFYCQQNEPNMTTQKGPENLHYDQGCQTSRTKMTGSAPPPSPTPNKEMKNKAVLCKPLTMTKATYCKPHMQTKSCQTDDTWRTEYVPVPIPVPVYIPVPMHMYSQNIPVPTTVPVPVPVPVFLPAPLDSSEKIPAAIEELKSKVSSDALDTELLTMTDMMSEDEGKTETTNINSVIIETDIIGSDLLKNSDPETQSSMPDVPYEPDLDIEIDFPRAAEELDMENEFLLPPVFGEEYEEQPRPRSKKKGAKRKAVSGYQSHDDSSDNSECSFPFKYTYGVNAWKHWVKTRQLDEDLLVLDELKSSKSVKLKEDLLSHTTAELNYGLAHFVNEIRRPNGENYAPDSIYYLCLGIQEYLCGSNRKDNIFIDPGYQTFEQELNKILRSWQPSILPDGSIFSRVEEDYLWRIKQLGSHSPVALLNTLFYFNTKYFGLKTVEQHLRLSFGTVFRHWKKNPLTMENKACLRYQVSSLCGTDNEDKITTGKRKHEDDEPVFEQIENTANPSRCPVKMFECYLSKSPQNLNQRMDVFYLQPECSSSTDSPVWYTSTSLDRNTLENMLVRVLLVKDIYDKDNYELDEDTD

Compound: Nc1ncnc2c1ncn2[C@@H]1O[C@H](COP(=O)(O)OP(=O)(O)NP(=O)(O)O)[C@@H](O)[C@H]1O [adenylyl imidodiphosphate]
Experiment: NP40-soluble protein abundance relative to vehicle (solubility fold change) (ratio); higher = more soluble protein in presence of AMP-PNP
How it was run: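 Values are fold changes against the detergent-processed vehicle, based on vsn-normalised intensities. Jurkat crude lysate was treated at eight concentrations from 0.1 to 10 mM (10 min at room temperature, then 3 min at 37 °C), solubilised with 0.8% NP40 and benzonase, ultracentrifuged and analysed by TMT-labelled LC-MS/MS over three independent experiments.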

Target | NP40-soluble protein abundance (concentration: 1mM) | NP40-soluble protein abundance (concentration: 2mM) | NP40-soluble protein abundance (concentration: 4mM) | NP40-soluble protein abundance (concentration: 6mM) | NP40-soluble protein abundance (concentration: 8mM) | NP40-soluble protein abundance (concentration: 10mM)
AASS (UniProt Q9UDR5) | 0.9781 ± 0.0043 | 0.935 ± 0.098 | 0.969 ± 0.035 | 0.947 ± 0.021 | 0.979 ± 0.01 | 0.939 ± 0.027
UniProt Q9UJU2 and related entries | 1.03 ± 0.037 | 1.07 ± 0.12 | 0.974 ± 0.085 | 0.958 ± 0.071 | 0.958 ± 0.053 | 1 ± 0.059
UniProt Q9UJX5 and related entries | 0.98 ± 0.011 | 0.963 ± 0.022 | 0.978 ± 0.032 | 0.9776 ± 0.0087 | 0.977 ± 0.024 | 0.98 ± 0.032
UniProt Q9UHC7 and related entries | 1.06 ± 0.021 | 1.07 ± 0.083 | 1.05 ± 0.023 | 1.05 ± 0.013 | 1.02 ± 0.014 | 1.05 ± 0.029
ANAPC7 (UniProt Q9UJX3) | 1.04 ± 0.021 | 1.036 ± 0.0033 | 1.05 ± 0.022 | 1.04 ± 0.049 | 1.02 ± 0.044 | 1.05 ± 0.036
UniProt Q9UHP3 and related entries | 0.966 ± 0.013 | 0.997 ± 0.015 | 0.975 ± 0.026 | 0.963 ± 0.023 | 0.964 ± 0.013 | 0.971 ± 0.024
UniProt Q9UK61 and related entries | 1.02 ± 0.021 | 1.016 ± 0.008 | 1.04 ± 0.018 | 1.01 ± 0.067 | 1.02 ± 0.064 | 1.05 ± 0.075
MAPRE3 (UniProt Q9UPY8) | 1.02 ± 0.023 | 1.06 ± 0.019 | 1.03 ± 0.02 | 1.02 ± 0.08 | 1.02 ± 0.065 | 1.02 ± 0.033
UniProt Q9UID6 and related entries | 0.981 ± 0.012 | 0.999 ± 0.041 | 0.988 ± 0.023 | 0.999 ± 0.03 | 1 ± 0.024 | 0.99 ± 0.024
RAB23 (UniProt Q9ULC3) | 0.9714 ± 0.0024 | 0.9596 ± 0.0092 | 0.974 ± 0.029 | 1.01 ± 0.029 | 1.03 ± 0.044 | 1 ± 0.018
UniProt Q9ULE6 | 0.981 ± 0.025 | 0.96 ± 0.013 | 1.01 ± 0.02 | 0.959 ± 0.027 | 0.957 ± 0.016 | 0.944 ± 0.025
UBQLN1 (UniProt Q9UMX0) | 0.991 ± 0.053 | 1.01 ± 0.011 | 1 ± 0.033 | 0.983 ± 0.035 | 0.95 ± 0.06 | 0.998 ± 0.061
UniProt Q9UL18 | 1.02 ± 0.011 | 0.979 ± 0.026 | 0.983 ± 0.011 | 1.02 ± 0.042 | 1.04 ± 0.017 | 1.03 ± 0.019
ZNF148 (UniProt Q9UQR1) | 1.02 ± 0.037 | 1.01 ± 0.034 | 1.01 ± 0.077 | 0.962 ± 0.033 | 0.985 ± 0.086 | 0.993 ± 0.092
UniProt Q9ULK6 and related entries | 0.98 ± 0.057 | 1.1 ± 0.21 | 0.975 ± 0.038 | 0.995 ± 0.045 | 0.963 ± 0.011 | 1.05 ± 0.048
UniProt Q9Y2H1 | 1.02 ± 0.014 | 0.956 ± 0.09 | 0.993 ± 0.015 | 0.996 ± 0.016 | 0.997 ± 0.021 | 0.972 ± 0.038
UniProt Q9Y3D0 | 0.982 ± 0.053 | 0.979 ± 0.013 | 0.952 ± 0.062 | 0.961 ± 0.063 | 0.943 ± 0.051 | 0.924 ± 0.083
UniProt Q9UNS1 and related entries | 0.986 ± 0.035 | 0.97 ± 0.054 | 0.946 ± 0.031 | 0.932 ± 0.024 | 0.911 ± 0.05 | 0.916 ± 0.051
C19orf53 (UniProt Q9UNZ5) | 1.01 ± 0.026 | 1.06 ± 0.097 | 1.04 ± 0.043 | 1.09 ± 0.032 | 1.11 ± 0.023 | 1.18 ± 0.028
UniProt Q9ULP9 and related entries | 0.992 ± 0.033 | 0.9667 ± 0.0064 | 0.983 ± 0.028 | 0.999 ± 0.032 | 0.962 ± 0.047 | 0.957 ± 0.063
UniProt Q9UG63 and related entries | 1.04 ± 0.06 | 1.15 ± 0.065 | 1.41 ± 0.054 | 1.82 ± 0.11 | 2.25 ± 0.15 | 2.54 ± 0.26

Reformatted in CSV form: part of the list above.
Target,NP40-soluble protein abundance (concentration: 1mM),NP40-soluble protein abundance (concentration: 2mM),NP40-soluble protein abundance (concentration: 4mM),NP40-soluble protein abundance (concentration: 6mM),NP40-soluble protein abundance (concentration: 8mM),NP40-soluble protein abundance (concentration: 10mM)
UniProt Q9UJU2 and related entries,1.03 ± 0.037,1.07 ± 0.12,0.974 ± 0.085,0.958 ± 0.071,0.958 ± 0.053,1 ± 0.059
UniProt Q9UHC7 and related entries,1.06 ± 0.021,1.07 ± 0.083,1.05 ± 0.023,1.05 ± 0.013,1.02 ± 0.014,1.05 ± 0.029
UniProt Q9UHP3 and related entries,0.966 ± 0.013,0.997 ± 0.015,0.975 ± 0.026,0.963 ± 0.023,0.964 ± 0.013,0.971 ± 0.024
UniProt Q9UID6 and related entries,0.981 ± 0.012,0.999 ± 0.041,0.988 ± 0.023,0.999 ± 0.03,1 ± 0.024,0.99 ± 0.024
UniProt Q9ULE6,0.981 ± 0.025,0.96 ± 0.013,1.01 ± 0.02,0.959 ± 0.027,0.957 ± 0.016,0.944 ± 0.025
UBQLN1 (UniProt Q9UMX0),0.991 ± 0.053,1.01 ± 0.011,1 ± 0.033,0.983 ± 0.035,0.95 ± 0.06,0.998 ± 0.061
UniProt Q9UL18,1.02 ± 0.011,0.979 ± 0.026,0.983 ± 0.011,1.02 ± 0.042,1.04 ± 0.017,1.03 ± 0.019
ZNF148 (UniProt Q9UQR1),1.02 ± 0.037,1.01 ± 0.034,1.01 ± 0.077,0.962 ± 0.033,0.985 ± 0.086,0.993 ± 0.092
UniProt Q9ULK6 and related entries,0.98 ± 0.057,1.1 ± 0.21,0.975 ± 0.038,0.995 ± 0.045,0.963 ± 0.011,1.05 ± 0.048
UniProt Q9Y2H1,1.02 ± 0.014,0.956 ± 0.09,0.993 ± 0.015,0.996 ± 0.016,0.997 ± 0.021,0.972 ± 0.038
C19orf53 (UniProt Q9UNZ5),1.01 ± 0.026,1.06 ± 0.097,1.04 ± 0.043,1.09 ± 0.032,1.11 ± 0.023,1.18 ± 0.028
UniProt Q9UG63 and related entries,1.04 ± 0.06,1.15 ± 0.065,1.41 ± 0.054,1.82 ± 0.11,2.25 ± 0.15,2.54 ± 0.26

(cont.)

Target | NP40-soluble protein abundance (concentration: 1mM) | NP40-soluble protein abundance (concentration: 2mM) | NP40-soluble protein abundance (concentration: 4mM) | NP40-soluble protein abundance (concentration: 6mM) | NP40-soluble protein abundance (concentration: 8mM) | NP40-soluble protein abundance (concentration: 10mM)
NDUFA12 (UniProt Q9UI09) | 0.978 ± 0.05 | 0.974 ± 0.051 | 0.987 ± 0.028 | 1.01 ± 0.037 | 1.05 ± 0.031 | 1.02 ± 0.019
UniProt Q9UHH9 | 1.002 ± 0.003 | 1.04 ± 0.027 | 0.987 ± 0.025 | 1.01 ± 0.017 | 1.03 ± 0.026 | 1.02 ± 0.027
DRG1 (UniProt Q9Y295) | 0.997 ± 0.032 | 0.974 ± 0.019 | 1.01 ± 0.026 | 1.04 ± 0.053 | 1.05 ± 0.028 | 1.04 ± 0.04
FAM8A1 (UniProt Q9UBU6) | 0.975 ± 0.021 | 0.9965 ± 0.0065 | 0.987 ± 0.036 | 0.957 ± 0.03 | 0.968 ± 0.023 | 0.97 ± 0.015
VDAC3 (UniProt Q9Y277) | 0.964 ± 0.065 | 0.948 ± 0.037 | 0.988 ± 0.071 | 1.09 ± 0.14 | 1.12 ± 0.087 | 1.11 ± 0.071
UniProt Q9UNM6 and related entries | 0.902 ± 0.0098 | 0.817 ± 0.056 | 0.868 ± 0.068 | 0.885 ± 0.053 | 0.892 ± 0.074 | 0.841 ± 0.095
UniProt Q9UM21 | 1.02 ± 0.058 | 0.987 ± 0.034 | 0.981 ± 0.023 | 1 ± 0.071 | 1 ± 0.043 | 0.991 ± 0.023
UniProt Q9Y250 and related entries | 1.02 ± 0.019 | 1.03 ± 0.031 | 1.02 ± 0.041 | 0.954 ± 0.011 | 0.942 ± 0.032 | 0.991 ± 0.047
ZNHIT2 (UniProt Q9UHR6) | 0.9613 ± 0.0012 | 0.984 ± 0.044 | 1 ± 0.059 | 0.974 ± 0.037 | 0.986 ± 0.033 | 0.993 ± 0.037
UniProt Q9UEE5 | 1.06 ± 0.025 | 1.04 ± 0.068 | 1.03 ± 0.031 | 1.04 ± 0.035 | 1.03 ± 0.022 | 1.041 ± 0.0083
UniProt Q9UH92 and related entries | 0.99 ± 0.027 | 0.997 ± 0.068 | 1.01 ± 0.048 | 1.02 ± 0.038 | 1 ± 0.038 | 1.03 ± 0.023
AFF4 (UniProt Q9UHB7) | 1.04 ± 0.039 | 1.09 ± 0.039 | 1.16 ± 0.044 | 1.16 ± 0.066 | 1.13 ± 0.04 | 1.18 ± 0.071
VPS4A (UniProt Q9UN37) | 1.02 ± 0.043 | 1.06 ± 0.027 | 1.02 ± 0.056 | 1 ± 0.099 | 0.961 ± 0.076 | 0.967 ± 0.044
RCL1 (UniProt Q9Y2P8) | 0.9923 ± 0.0056 | 0.892 ± 0.078 | 0.97 ± 0.011 | 1.02 ± 0.029 | 1.04 ± 0.019 | 0.968 ± 0.055
UniProt Q9UJY4 and related entries | 1.01 ± 0.015 | 1.01 ± 0.065 | 0.973 ± 0.026 | 0.9748 ± 0.003 | 0.975 ± 0.029 | 0.999 ± 0.064
UniProt Q9UP83 and related entries | 1 ± 0.035 | 1.01 ± 0.016 | 0.999 ± 0.02 | 0.963 ± 0.047 | 0.96 ± 0.061 | 0.98 ± 0.071
PA2G4 (UniProt Q9UQ80) | 0.994 ± 0.021 | 0.9819 ± 0.0068 | 0.9512 ± 0.0056 | 0.966 ± 0.016 | 0.935 ± 0.03 | 0.947 ± 0.038
CYB5R1 (UniProt Q9UHQ9) | 0.99 ± 0.05 | 0.899 ± 0.084 | 1 ± 0.048 | 0.992 ± 0.075 | 1.05 ± 0.063 | 0.972 ± 0.044
UBE2J1 (UniProt Q9Y385) | 0.97 ± 0.012 | 0.974 ± 0.014 | 0.9584 ± 0.0065 | 0.915 ± 0.055 | 0.882 ± 0.051 | 0.908 ± 0.028
ZMYM2 (UniProt Q9UBW7) | 1 ± 0.033 | 0.977 ± 0.06 | 0.988 ± 0.023 | 0.963 ± 0.07 | 0.929 ± 0.018 | 0.946 ± 0.047
